Reference: the supplement of paper PMC12067093, “Discovery and optimisation of a covalent ligand for TRIM25 and its application to targeted protein ubiquitination” (Chemical Science, 2025)
The other results are listed elsewhere or left out.

Chains of the proteins cited; added tags and fusions are not shown. Lines headed by an entry give the natural chain unless they say otherwise; changes in a name come on top.
UniProt P78395, whole entry: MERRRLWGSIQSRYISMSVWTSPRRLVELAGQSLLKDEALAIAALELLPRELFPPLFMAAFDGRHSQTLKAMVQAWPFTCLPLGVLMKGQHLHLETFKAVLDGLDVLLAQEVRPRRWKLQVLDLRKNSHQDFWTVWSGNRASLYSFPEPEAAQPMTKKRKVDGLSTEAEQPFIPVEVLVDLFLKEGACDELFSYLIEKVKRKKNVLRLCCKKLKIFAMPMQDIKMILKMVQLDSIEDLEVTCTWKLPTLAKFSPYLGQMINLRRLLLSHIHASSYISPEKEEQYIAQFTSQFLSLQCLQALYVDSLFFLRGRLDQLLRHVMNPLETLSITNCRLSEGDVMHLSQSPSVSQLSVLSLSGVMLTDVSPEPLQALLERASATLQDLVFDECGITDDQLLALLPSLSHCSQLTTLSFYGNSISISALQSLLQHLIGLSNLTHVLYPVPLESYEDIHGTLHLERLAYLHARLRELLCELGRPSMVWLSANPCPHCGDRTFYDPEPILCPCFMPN
UniProt P30153, whole entry, looked up: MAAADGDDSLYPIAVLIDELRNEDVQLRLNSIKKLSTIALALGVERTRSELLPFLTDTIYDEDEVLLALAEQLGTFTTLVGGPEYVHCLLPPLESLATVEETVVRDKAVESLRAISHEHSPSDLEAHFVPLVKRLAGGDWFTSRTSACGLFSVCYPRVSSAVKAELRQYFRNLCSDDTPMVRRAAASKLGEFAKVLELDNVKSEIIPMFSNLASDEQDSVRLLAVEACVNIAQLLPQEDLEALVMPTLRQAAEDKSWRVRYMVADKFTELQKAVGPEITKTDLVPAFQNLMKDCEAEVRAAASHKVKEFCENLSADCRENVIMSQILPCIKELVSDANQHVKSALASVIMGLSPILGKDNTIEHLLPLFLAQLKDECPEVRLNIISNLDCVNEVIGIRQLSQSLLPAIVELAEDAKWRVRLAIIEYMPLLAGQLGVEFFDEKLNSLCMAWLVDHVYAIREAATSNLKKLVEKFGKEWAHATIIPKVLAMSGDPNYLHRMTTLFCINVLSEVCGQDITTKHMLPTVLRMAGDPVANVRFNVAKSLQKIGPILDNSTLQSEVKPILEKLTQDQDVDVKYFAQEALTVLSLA
UniProt P36873, whole entry, looked up: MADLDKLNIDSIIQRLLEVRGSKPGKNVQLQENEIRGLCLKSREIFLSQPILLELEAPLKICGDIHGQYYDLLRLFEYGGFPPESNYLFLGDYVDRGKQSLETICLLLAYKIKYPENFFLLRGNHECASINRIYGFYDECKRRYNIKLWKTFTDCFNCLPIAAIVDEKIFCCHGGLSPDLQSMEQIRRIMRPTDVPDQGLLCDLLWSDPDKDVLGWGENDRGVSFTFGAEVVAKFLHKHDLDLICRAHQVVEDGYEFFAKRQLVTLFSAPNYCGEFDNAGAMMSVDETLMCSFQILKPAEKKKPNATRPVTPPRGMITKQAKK
UniProt Q9NY27: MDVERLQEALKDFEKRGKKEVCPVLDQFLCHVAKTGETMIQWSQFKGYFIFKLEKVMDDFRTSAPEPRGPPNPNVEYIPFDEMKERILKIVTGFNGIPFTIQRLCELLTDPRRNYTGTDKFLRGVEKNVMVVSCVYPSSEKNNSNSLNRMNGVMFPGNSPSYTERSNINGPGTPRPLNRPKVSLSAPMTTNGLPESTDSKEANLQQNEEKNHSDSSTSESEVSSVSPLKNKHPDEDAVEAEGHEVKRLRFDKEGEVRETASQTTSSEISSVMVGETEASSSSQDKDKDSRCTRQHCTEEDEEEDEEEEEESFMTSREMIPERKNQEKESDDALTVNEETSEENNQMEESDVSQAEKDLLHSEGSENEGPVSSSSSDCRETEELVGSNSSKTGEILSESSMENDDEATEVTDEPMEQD
UniProt O43314: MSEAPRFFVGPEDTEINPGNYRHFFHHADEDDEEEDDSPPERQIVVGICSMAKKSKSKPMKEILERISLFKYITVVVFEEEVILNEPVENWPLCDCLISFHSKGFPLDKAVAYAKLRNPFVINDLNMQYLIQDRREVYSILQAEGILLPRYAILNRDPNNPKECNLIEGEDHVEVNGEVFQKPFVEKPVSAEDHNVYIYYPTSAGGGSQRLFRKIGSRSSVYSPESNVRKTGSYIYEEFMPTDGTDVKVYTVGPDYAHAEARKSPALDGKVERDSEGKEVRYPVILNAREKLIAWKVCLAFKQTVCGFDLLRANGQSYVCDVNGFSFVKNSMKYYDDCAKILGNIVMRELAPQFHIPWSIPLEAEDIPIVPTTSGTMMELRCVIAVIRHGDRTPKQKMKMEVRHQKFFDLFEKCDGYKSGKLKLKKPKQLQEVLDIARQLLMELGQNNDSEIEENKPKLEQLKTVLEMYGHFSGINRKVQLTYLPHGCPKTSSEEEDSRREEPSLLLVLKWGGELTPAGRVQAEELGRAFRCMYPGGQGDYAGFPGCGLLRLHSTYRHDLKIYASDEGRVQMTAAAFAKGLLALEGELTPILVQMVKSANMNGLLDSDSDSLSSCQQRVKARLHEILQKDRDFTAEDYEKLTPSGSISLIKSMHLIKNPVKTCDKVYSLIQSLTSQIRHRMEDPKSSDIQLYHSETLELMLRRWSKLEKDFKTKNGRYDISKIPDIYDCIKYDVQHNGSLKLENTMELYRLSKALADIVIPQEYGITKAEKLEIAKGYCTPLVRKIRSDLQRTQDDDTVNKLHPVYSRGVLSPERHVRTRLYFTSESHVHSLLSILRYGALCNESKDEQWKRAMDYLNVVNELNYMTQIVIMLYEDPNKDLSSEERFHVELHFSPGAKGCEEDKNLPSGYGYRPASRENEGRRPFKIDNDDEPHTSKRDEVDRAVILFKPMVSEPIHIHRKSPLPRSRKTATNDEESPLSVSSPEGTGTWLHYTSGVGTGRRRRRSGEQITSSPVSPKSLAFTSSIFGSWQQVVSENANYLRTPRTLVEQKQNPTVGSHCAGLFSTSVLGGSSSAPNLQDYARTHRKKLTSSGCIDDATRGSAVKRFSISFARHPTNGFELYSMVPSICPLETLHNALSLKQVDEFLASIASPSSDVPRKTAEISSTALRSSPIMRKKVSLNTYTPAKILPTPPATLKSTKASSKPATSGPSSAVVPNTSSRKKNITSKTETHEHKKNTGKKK
UniProt O95685: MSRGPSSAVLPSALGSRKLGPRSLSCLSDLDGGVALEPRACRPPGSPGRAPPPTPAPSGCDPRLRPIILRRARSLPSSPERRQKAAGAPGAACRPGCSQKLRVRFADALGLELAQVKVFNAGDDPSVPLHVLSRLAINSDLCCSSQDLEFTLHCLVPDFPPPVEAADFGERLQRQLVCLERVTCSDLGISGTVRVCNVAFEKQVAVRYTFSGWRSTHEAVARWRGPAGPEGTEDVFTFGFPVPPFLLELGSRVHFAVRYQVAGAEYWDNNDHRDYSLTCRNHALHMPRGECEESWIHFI
UniProt Q8TF05: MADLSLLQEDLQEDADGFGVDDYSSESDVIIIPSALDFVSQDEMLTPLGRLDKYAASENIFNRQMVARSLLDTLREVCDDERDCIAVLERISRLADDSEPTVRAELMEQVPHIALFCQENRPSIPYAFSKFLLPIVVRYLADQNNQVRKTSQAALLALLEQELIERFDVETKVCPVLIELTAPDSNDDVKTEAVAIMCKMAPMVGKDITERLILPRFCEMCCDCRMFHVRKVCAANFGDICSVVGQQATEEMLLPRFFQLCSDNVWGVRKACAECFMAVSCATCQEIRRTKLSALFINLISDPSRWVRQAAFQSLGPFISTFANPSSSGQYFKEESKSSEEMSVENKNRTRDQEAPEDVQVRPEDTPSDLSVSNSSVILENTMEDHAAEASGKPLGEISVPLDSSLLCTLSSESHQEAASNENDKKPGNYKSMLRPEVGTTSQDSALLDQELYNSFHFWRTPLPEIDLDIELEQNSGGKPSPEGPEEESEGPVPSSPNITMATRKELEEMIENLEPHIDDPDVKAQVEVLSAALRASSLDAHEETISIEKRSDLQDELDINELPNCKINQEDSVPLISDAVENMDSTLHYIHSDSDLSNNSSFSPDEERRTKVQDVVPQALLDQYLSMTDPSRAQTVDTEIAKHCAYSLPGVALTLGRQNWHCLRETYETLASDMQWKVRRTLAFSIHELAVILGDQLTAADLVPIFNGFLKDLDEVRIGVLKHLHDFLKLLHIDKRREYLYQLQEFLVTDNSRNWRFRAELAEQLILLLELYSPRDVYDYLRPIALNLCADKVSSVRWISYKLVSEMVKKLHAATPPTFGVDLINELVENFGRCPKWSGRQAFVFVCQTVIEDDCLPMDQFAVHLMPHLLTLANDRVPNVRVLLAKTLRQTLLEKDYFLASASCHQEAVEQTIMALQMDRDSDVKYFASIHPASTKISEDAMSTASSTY
UniProt Q12972: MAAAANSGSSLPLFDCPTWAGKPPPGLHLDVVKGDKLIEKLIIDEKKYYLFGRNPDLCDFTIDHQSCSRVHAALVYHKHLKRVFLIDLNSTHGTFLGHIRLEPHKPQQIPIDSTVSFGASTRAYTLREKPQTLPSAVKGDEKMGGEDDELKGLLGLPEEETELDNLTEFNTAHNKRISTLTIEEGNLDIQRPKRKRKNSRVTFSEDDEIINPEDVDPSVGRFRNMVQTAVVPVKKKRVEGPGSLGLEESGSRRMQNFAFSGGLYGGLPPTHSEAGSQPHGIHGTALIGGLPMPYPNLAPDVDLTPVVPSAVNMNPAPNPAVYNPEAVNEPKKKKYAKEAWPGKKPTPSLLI
UniProt P60510: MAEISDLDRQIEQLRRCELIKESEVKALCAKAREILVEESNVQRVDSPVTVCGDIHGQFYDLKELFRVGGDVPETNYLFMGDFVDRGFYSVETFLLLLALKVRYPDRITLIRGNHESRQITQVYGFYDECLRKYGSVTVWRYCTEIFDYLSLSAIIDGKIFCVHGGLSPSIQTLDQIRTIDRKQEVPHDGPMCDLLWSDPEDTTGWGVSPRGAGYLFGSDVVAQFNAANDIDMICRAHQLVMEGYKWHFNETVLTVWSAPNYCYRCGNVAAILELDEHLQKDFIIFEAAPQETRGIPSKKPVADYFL
UniProt Q9HCU5: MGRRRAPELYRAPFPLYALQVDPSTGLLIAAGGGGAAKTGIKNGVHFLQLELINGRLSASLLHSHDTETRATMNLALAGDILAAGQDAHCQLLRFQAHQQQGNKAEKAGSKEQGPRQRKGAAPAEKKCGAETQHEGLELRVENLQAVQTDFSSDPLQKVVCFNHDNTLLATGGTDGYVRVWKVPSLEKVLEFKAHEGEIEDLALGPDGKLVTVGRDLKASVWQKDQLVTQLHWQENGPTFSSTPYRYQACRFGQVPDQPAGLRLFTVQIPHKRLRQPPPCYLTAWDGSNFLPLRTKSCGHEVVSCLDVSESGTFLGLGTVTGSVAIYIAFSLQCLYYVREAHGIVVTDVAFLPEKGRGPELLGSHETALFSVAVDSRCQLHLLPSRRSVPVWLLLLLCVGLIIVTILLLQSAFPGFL
UniProt P63151: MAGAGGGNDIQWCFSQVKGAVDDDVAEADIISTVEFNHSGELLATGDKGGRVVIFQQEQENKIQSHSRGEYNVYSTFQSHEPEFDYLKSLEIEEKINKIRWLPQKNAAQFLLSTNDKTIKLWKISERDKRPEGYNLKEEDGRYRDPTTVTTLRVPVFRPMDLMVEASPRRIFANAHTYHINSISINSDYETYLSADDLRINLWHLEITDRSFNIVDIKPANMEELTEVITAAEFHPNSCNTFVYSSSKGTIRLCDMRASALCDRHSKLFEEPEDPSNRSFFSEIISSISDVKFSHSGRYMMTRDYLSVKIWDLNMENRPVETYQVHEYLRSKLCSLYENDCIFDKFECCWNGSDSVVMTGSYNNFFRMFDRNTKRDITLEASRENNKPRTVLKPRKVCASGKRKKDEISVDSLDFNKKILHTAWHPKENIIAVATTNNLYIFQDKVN
UniProt Q96BP3: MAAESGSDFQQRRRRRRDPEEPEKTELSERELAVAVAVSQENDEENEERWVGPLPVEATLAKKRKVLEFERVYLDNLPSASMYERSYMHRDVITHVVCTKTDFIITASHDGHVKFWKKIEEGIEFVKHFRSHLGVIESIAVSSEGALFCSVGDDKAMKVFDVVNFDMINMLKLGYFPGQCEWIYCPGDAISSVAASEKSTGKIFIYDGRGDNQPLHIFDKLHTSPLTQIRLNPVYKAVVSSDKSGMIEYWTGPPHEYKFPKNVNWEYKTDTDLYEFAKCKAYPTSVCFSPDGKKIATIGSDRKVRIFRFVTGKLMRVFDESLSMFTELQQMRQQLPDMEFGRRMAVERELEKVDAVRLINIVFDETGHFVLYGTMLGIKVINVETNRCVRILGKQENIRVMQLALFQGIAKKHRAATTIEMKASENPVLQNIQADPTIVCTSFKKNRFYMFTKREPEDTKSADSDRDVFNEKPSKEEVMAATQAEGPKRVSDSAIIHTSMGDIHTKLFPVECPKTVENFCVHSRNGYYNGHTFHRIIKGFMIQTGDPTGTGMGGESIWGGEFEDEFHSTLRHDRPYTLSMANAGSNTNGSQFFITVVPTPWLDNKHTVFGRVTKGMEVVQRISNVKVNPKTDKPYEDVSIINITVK

Compound: Cc1cc(ccc1-c1ccccc1)C(=O)N1CCCN(CC1)C(=O)CCl [compound 10]
Experiment: probe-labelled cysteine peptide fold change vs DMSO (competition) (log2 fold change); higher = less target engagement (more negative = stronger competition)
Settings: THP-1, incubation time: 4 h
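Also: competitive profiling in live THP-1 cells: cysteine peptides tagged with an iodoacetamide desthiobiotin (IA-DTB) probe, intensity after compound treatment relative to DMSO-treated cells.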

Row | Target | probe-labelled cysteine peptide fold change (10 µM) | probe-labelled cysteine peptide fold change (50 µM)
1 | PPP3CA_Q08209_88_NLLDIDAPVTVCGDIHGQFFDLMK (UniProt Q08209) | -0.0736 | 0.0327
2 | PRAME_P78395_188_EGACDELFSYLIEK (UniProt P78395) | -0.0075 | -0.148
3 | PPP2R1A_P30153_174_NLCSDDTPMVR (UniProt P30153) | -0.0569 | -0.0571
4 | PPP1CC_P36873_62_ICGDIHGQYYDLLR (UniProt P36873) | 0.0848 | 0.122
5 | PPP4R2_Q9NY27_105_LCELLTDPR (UniProt Q9NY27) | 0.0683 | 0.148
6 | PPP1R12C_Q9BZL4_297_LLAEHGGGMDSLTHAGQRPCDLADEEVLSLLEELAR (UniProt Q9BZL4) | 0.04 | -0.442
7 | PPIP5K2_O43314_488_KVQLTYLPHGCPK (UniProt O43314) | -0.245 | -0.344
8 | PPP2R1A_P30153_377_DECPEVR (UniProt P30153) | 0.148 | 0.26
9 | PPP1R3D_O95685_279_YQVAGAEYWDNNDHRDYSLTCR (UniProt O95685) | -0.00214 | -0.126
10 | PPP4R1_Q8TF05_117_AELMEQVPHIALFCQENRPSIPYAFSK (UniProt Q8TF05) | -0.258 | 0.035
11 | PPP6R3_Q5H9R7_37_ELMDEEDVLQECK (UniProt Q5H9R7) | -0.174 | -0.125
12 | PREX1_Q8TCU6_1583_LGACQMVMCGTGMQR (UniProt Q8TCU6) | 0.0633 | 0.0388
13 | PPP1CC_P36873_202_IMRPTDVPDQGLLCDLLWSDPDK (UniProt P36873) | -0.146 | 0.269
14 | PPP1R8_Q12972_58+67_NPDLCDFTIDHQSCSR (UniProt Q12972) | 0.0562 | 0.308
15 | PPP1CB_P62140_201_IMRPTDVPDTGLLCDLLWSDPDKDVQGWGENDR (UniProt P62140) | -0.0477 | -0.347
16 | PRAG1_Q86YV5_221_LAAFAGTTSGCHQGPGPLR (UniProt Q86YV5) | -0.112 | -0.152
17 | PPIP5K1_Q6PFW1_675_VCDQVFALIENLTHQIR (UniProt Q6PFW1) | -0.0562 | 0.0718
18 | PPP1R8_Q12972_67_NPDLCDFTIDHQSCSR (UniProt Q12972) | 0.00106 | 0.115
19 | PPIP5K2_O43314_338_YYDDCAK (UniProt O43314) | 0.242 | 0.217

Row | Target | probe-labelled cysteine peptide fold change (10 µM) | probe-labelled cysteine peptide fold change (50 µM)
20 | PPP1R21_Q6ZMI0_696_SVHFYAECR (UniProt Q6ZMI0) | -0.00803 | 0.238
21 | PPP4C_P60510_162_IFCVHGGLSPSIQTLDQIR (UniProt P60510) | -0.0185 | 0.298
22 | PRDX3_P30048_127_ANEFHDVNCEVVAVSVDSHFSHLAWINTPR (UniProt P30048) | 0.136 | 0.382
23 | PREB_Q9HCU5_378_CQLHLLPSR (UniProt Q9HCU5) | 0.0644 | 0.31
24 | PPP2R5C_Q13362_270_SLSVYHPQLAYCVVQFLEK (UniProt Q13362) | 0.187 | 0.194
25 | PPP5C_P53041_404_RGVSCQFGPDVTK (UniProt P53041) | -0.00883 | -0.103
26 | PPP1R3D_O95685_41_ACRPPGSPGR (UniProt O95685) | -0.0976 | 0.0462
27 | PPP2R2A_P63151_398_VCASGK (UniProt P63151) | -0.159 | -0.0658
28 | PPP4R1_Q8TF05_84_EVCDDERDCIAVLER (UniProt Q8TF05) | -0.052 | -0.258
29 | PPIP5K2_O43314_49_QIVVGICSMAK (UniProt O43314) | -0.0903 | -0.046
30 | PREP_P48147_410_DTEIFYQFTSFLSPGIIYHCDLTK (UniProt P48147) | 0.0842 | 0.431
31 | PREB_Q9HCU5_280_LRQPPPCYLTAWDGSNFLPLR (UniProt Q9HCU5) | 0.0286 | -0.169
32 | PPT1_P50897_152+160_CPGESSHICDFIRK (UniProt P50897) | -0.599 | -0.767
33 | PREB_Q9HCU5_161_VVCFNHDNTLLATGGTDGYVR (UniProt Q9HCU5) | 0.282 | 0.269
34 | PPP1CB_P62140_201_RIMRPTDVPDTGLLCDLLWSDPDK (UniProt P62140) | 0.0748 | 0.169
35 | PPP4R3A_Q6IN85_180_LLELFHVCEDLENIEGLHHLYEIIK (UniProt Q6IN85) | 0.46 | 0.616
36 | PRDM2_Q13029_875_ESHSVQPTCSAVK (UniProt Q13029) | -0.0669 | -0.176
37 | PPWD1_Q96BP3_98_DVITHVVCTK (UniProt Q96BP3) | 0.146 | 0.231
